# Experimental data taken from the supplement of paper PMC8728848.
# Some of the results follow.
# B1: SynCAM (Mus musculus) (protein)
# chain: MASAVLPSGSQCAAAAAVAAAAAPPGLRLRLLLLLLSAAALIPTGDGQNLFTKDVTVIEGEVATISCQVNKSDDSVIQLLNPNRQTIYFRDFRPLKDSRFQLLNFSSSELKVSLTNVSISDEGRYFCQLYTDPPQESYTTITVLVPPRNLMIDIQKDTAVEGEEIEVNCTAMASKPATTIRWFKGNKELKGKSEVEEWSDMYTVTSQLMLKVHKEDDGVPVICQVEHPAVTGNLQTQRYLEVQYKPQVHIQMTYPLQGLTREGDAFELTCEAIGKPQPVMVTWVRVDDEMPQHAVLSGPNLFINNLNKTDNGTYRCEASNIVGKAHSDYMLYVYDPPTTIPPP
# Tests used:
# Assay in all cases: glycan array binding signal (z-score within array); higher = stronger binding
# Settings in all cases: glycan notation: IUPAC condensed, linker removed
# Neu5Ac(a2-8)Neu5Ac = biological target: Neu5Ac(a2-8)Neu5Ac
# Outline: (§1)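 The binding signal is a Z-score computed within each array. Data were drawn from 3228 arrays in the Consortium for Functional Glycomics database, restricted to those with a known protein sequence. Scores were averaged over arrays of the same protein sequence at different concentrations or buffers, and over linkers, and negative values can be taken as non-binding.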
# [1] = biological target: Neu5Ac(a2-8)Neu5Ac(a2-3)Gal(b1-3)GalNAc(b1-4)[Neu5Ac(a2-3)]Gal(b1-4)Glc
# Outline: as §1
# [2] = biological target: Neu5Ac(a2-8)Neu5Ac(a2-3)Gal(b1-3)GalNAc(b1-4)[Neu5Ac(a2-8)Neu5Ac(a2-3)]Gal(b1-4)Glc
# Outline: as §1
# [3] = biological target: Neu5Ac(a2-8)Neu5Ac(a2-3)Gal(b1-4)Glc
# Outline: as §1
# [4] = biological target: Neu5Ac(a2-8)Neu5Ac(a2-3)Gal(b1-4)GlcNAc
# Outline: as §1
# [5] = biological target: Neu5Ac(a2-8)Neu5Ac(a2-3)[Gal(b1-3)GalNAc(b1-4)]Gal(b1-4)Glc
# Outline: as §1
# [6] = biological target: Neu5Ac(a2-8)Neu5Ac(a2-3)[GalNAc(b1-4)]Gal(b1-4)Glc
# Outline: as §1
# [7] = biological target: Neu5Ac(a2-8)Neu5Ac(a2-8)Neu5Ac
# Outline: as §1
# [8] = biological target: Neu5Ac(a2-8)Neu5Ac(a2-8)Neu5Ac(a2-3)Gal(b1-4)Glc
# Outline: as §1
# [9] = biological target: Neu5Ac(a2-8)Neu5Ac(a2-8)Neu5Ac(a2-3)[Gal(b1-3)GalNAc(b1-4)]Gal(b1-4)Glc
# Outline: as §1
# [10] = biological target: Neu5Ac(a2-8)Neu5Ac(a2-8)Neu5Ac(a2-3)[GalNAc(b1-4)]Gal(b1-4)Glc
# Outline: as §1
# [11] = biological target: Neu5Ac(a2-8)Neu5Ac(a2-8)Neu5Ac(a2-8)Neu5Ac(a2-3)[GalNAc(b1-4)]Gal(b1-4)Glc
# Outline: as §1
# [12] = biological target: Neu5Ac(a2-8)Neu5Gc(a2-3)Gal(b1-4)GlcNAc
# Outline: as §1
# [13] = biological target: Neu5Ac(b2-6)Gal(b1-4)GlcNAc
# Outline: as §1
# Neu5Ac(b2-6)GalNAc = biological target: Neu5Ac(b2-6)GalNAc
# Outline: as §1
# [14] = biological target: Neu5Ac9Ac(a2-3)Gal(b1-3)GlcNAc
# Outline: as §1
# [15] = biological target: Neu5Ac9Ac(a2-3)Gal(b1-4)GlcNAc
# Outline: as §1
# [16] = biological target: Neu5Ac9Ac(a2-6)Gal(b1-4)GlcNAc
# Outline: as §1
# [17] = biological target: Neu5Gc(a2-3)Gal(b1-3)GlcNAc
# Outline: as §1
# [18] = biological target: Neu5Gc(a2-3)Gal(b1-3)[Fuc(a1-4)]GlcNAc
# Outline: as §1
# Neu5Gc(a2-3)Gal(b1-4)Glc = biological target: Neu5Gc(a2-3)Gal(b1-4)Glc
# Outline: as §1
# [19] = biological target: Neu5Gc(a2-3)Gal(b1-4)GlcNAc
# Outline: as §1
# [20] = biological target: Neu5Gc(a2-3)Gal(b1-4)GlcNAc(b1-3)Gal(b1-4)GlcNAc(b1-2)Man(a1-3)[Neu5Gc(a2-3)Gal(b1-4)GlcNAc(b1-3)Gal(b1-4)GlcNAc(b1-2)Man(a1-6)]Man(b1-4)GlcNAc(b1-4)GlcNAc
# Outline: as §1
# [21] = biological target: Neu5Gc(a2-3)Gal(b1-4)[Fuc(a1-3)]GlcNAc
# Outline: as §1
# [22] = biological target: Neu5Gc(a2-6)Gal(b1-4)GlcNAc
# Outline: as §1
# Neu5Gc(a2-6)GalNAc = biological target: Neu5Gc(a2-6)GalNAc
# Outline: as §1
# [23] = biological target: Neu5Gc(a2-8)Neu5Ac(a2-3)Gal(b1-4)GlcNAc
# Outline: as §1
# [24] = biological target: Neu5Gc(a2-8)Neu5Gc(a2-3)Gal(b1-4)GlcNAc
# Outline: as §1
# [25] = biological target: Neu5Gc(a2-8)Neu5Gc(a2-3)Gal(b1-4)GlcNAc(b1-3)Gal(b1-4)GlcNAc
# Outline: as §1
# [26] = biological target: Neu5Gc(a2-8)Neu5Gc(a2-6)Gal(b1-4)GlcNAc
# Outline: as §1
# [27] = biological target: Neu5Gc(b2-6)Gal(b1-4)GlcNAc
# Outline: as §1
binder,measurement,setting,value
B1,glycan array binding signal (z-score),Neu5Ac(a2-8)Neu5Ac,0.392
same,glycan array binding signal (z-score),[1],1.02
same,glycan array binding signal (z-score),[2],-0.014
same,glycan array binding signal (z-score),[3],2.34
same,glycan array binding signal (z-score),[4],-0.664
same,glycan array binding signal (z-score),[5],0.872
same,glycan array binding signal (z-score),[6],-0.675
same,glycan array binding signal (z-score),[7],-0.097
same,glycan array binding signal (z-score),[8],0.525
same,glycan array binding signal (z-score),[9],-0.817
same,glycan array binding signal (z-score),[10],-0.674
same,glycan array binding signal (z-score),[11],0.484
same,glycan array binding signal (z-score),[12],-1.08
same,glycan array binding signal (z-score),[13],-0.685
same,glycan array binding signal (z-score),Neu5Ac(b2-6)GalNAc,-0.413
same,glycan array binding signal (z-score),[14],-0.831
same,glycan array binding signal (z-score),[15],-1.57
same,glycan array binding signal (z-score),[16],-0.982
same,glycan array binding signal (z-score),[17],-0.846
same,glycan array binding signal (z-score),[18],-0.642
same,glycan array binding signal (z-score),Neu5Gc(a2-3)Gal(b1-4)Glc,-0.801
same,glycan array binding signal (z-score),[19],-0.921
same,glycan array binding signal (z-score),[20],1.09
same,glycan array binding signal (z-score),[21],0.261
same,glycan array binding signal (z-score),[22],-0.768
same,glycan array binding signal (z-score),Neu5Gc(a2-6)GalNAc,-0.004
same,glycan array binding signal (z-score),[23],-0.164
same,glycan array binding signal (z-score),[24],-0.058
same,glycan array binding signal (z-score),[25],-0.807
same,glycan array binding signal (z-score),[26],-0.527
same,glycan array binding signal (z-score),[27],0.145

# Pulled one by one from the list above, 2 records:
binder,measurement,setting,value
B1,glycan array binding signal (z-score),[20],1.09
same,glycan array binding signal (z-score),[25],-0.807
